This note sets out measurements from publication PMC5992149.

Amino acid sequences for entries named in this document (tags omitted). Residues count along the entry.
UniProt Q15109, residues 23-404: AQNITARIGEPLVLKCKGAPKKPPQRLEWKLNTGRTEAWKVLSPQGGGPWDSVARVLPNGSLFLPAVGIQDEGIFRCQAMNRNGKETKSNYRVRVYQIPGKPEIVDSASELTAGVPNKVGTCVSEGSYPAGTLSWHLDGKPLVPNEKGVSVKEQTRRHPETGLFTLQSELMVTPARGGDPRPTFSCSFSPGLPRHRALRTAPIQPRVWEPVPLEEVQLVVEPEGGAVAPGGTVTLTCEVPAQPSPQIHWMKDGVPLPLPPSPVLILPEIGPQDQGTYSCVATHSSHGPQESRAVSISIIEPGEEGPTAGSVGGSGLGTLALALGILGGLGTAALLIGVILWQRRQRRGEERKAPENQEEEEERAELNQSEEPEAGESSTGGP
UniProt P27695: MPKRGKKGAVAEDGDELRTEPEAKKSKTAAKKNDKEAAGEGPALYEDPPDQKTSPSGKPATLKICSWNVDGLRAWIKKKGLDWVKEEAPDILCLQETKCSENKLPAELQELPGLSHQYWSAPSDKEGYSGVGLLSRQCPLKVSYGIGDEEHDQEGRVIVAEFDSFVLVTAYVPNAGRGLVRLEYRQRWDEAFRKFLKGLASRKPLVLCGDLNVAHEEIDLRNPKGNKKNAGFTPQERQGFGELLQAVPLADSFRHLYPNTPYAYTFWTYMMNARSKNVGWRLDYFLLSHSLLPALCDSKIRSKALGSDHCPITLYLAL

These are yes or no findings as the source states them, for the method shown. Binding seen in cells or lysates may run through a third protein. Some results given as binding are weak or reduced against the parent protein; the word gives no strength.

Assay [1] has as its target RAGE stably overexpressed in MDA-MB-231 cells (RAGE^OV) (UniProt Q15109). In words: proximity ligation; Duolink II fluorescence kit on tumor sections of hyperacetylated (20 mg/(kg·day) ASA + 0.5 mg/kg TSA) xenografts; primary anti-RAGE (clone A11) and anti-APE1/Ref-1 antibodies; proximity <40 nm; confocal microscopy.
Assay [2] deals with receptor for advanced glycation end products (human (endogenous in MDA-MB-231)) (UniProt Q15109). Described as above.
The target is the same in assay [3]. The assay can be described thus: condition: only xenografts treated with SA or TSA alone (no hyperacetylation); proximity ligation; Duolink II fluorescence kit on tumor sections of xenografts treated with SA or with TSA alone (not hyperacetylated); primary anti-RAGE (clone A11) and anti-APE1/Ref-1 antibodies.

“secreted acetylated-apurinic apyrimidinic endonuclease 1/redox factor-1 (from UniProt P27695 1-318)”: the figures for the binding entry in assay [1], in assay [2] and in assay [3] were “binds”, “binds” and “no binding”, respectively.
